Data from PMC12820202.
These are yes or no findings as the source states them, for the method shown. In cells and extracts the contact can be indirect. Some entries that bind do so weakly or less than the wild type. For some assays here: Sequences can lack the tags named with a protein.

Chains of the proteins cited; added tags and fusions are not shown.
UniProt P10275: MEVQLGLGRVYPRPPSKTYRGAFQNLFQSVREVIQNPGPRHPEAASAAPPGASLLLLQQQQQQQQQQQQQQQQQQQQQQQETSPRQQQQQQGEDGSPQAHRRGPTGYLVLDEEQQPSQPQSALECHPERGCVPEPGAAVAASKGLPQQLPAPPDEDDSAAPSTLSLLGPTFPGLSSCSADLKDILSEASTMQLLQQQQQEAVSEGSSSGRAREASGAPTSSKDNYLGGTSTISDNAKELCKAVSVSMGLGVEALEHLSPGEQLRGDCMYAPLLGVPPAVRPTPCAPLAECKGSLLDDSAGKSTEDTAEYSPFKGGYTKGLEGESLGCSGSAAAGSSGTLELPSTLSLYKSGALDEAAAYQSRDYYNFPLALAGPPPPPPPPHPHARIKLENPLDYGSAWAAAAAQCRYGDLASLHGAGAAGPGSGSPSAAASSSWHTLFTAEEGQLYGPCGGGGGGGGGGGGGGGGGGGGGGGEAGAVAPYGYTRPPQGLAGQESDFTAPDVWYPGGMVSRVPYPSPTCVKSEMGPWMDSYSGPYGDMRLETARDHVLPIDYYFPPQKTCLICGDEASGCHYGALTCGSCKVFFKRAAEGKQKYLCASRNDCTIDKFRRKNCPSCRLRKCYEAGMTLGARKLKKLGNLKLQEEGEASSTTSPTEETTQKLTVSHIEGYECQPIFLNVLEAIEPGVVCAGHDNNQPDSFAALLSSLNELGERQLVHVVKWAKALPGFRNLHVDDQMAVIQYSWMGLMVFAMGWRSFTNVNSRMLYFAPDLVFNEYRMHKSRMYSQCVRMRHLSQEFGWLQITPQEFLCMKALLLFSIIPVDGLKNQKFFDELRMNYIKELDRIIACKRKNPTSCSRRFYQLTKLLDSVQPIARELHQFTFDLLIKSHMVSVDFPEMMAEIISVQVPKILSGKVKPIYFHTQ

Columns and labels:
[1] = molecular target: Flag-tagged BPTF fragment F3 (1002-1389) (human) (UniProt Q12830); assay: co-IP; tagged proteins co-transfected in 293T cells; lysate (50 mM Tris-HCl pH 7.5, 150 mM NaCl, 0.5% NP-40, 1 mM EDTA) incubated overnight with M2 (anti-Flag) beads, three washes, western blot
[2] = molecular target: Flag-tagged BPTF fragment F5 (1786-2254) (human) (UniProt Q12830); assay: as above
[3] = molecular target: Flag-tagged BPTF fragment F6 (2246-2626) (human) (UniProt Q12830); assay: as above
[4] = molecular target: androgen receptor (AR), endogenous (human (endogenous in Rv1 and C4-2)) (UniProt P10275); assay: co-IP; endogenous proteins in Rv1 cell lysate (50 mM Tris-HCl pH 7.5, 150 mM NaCl, 0.5% NP-40, 1 mM EDTA); rabbit primary antibody overnight, TrueBlot anti-rabbit IgG beads; also after AU1 for 24 h or BPTF knock-down
[5] = molecular target: androgen receptor (AR), endogenous (human (endogenous in Rv1 and C4-2)) (UniProt P10275); assay: co-IP; endogenous proteins in C4-2 cell lysate (50 mM Tris-HCl pH 7.5, 150 mM NaCl, 0.5% NP-40, 1 mM EDTA); rabbit primary antibody overnight, TrueBlot anti-rabbit IgG beads; also after androgen deprivation for 3 days and 1 nM R1881 for 24 h, enzalutamide (5 μM) for 24 h, AU1 for 24 h or BPTF knock-down

| binding [1] | binding [2] | binding [3] | binding [4] | binding [5] | Binder |
| --- | --- | --- | --- | --- | --- |
| binds | binds | binds |  |  | HA-FOXA1 (protein, UniProt P55317 1-472) MLGTVKMEGHETSDWNSYYADTQEAYSSVPVSNMNSGLGSMNSMNTYMTMNTMTTSGNMTPASFNMSYANPGLGAGLSPGAVAGMPGGSAGAMNSMTAAGVTAMGTALSPSGMGAMGAQQAASMNGLGPYAAAMNPCMSPMAYAPSNLGRSRAGGGGDAKTFKRSYPHAKPPYSYISLITMAIQQAPSKMLTLSEIYQWIMDLFPYYRQNQQRWQNSIRHSLSFNDCFVKVARSPDKPGKGSYWTLHPDSGNMFENGCYLRRQKRFKCEKQPGAGGGGGSGSGGSGAKGGPESRKDPSGASNPSADSPLHRGVHGKTGQLEGAPAPGPAASPQTLDHSGATATGGASELKTPASSTAPPISSGPGALASVPASHPAHGLAPHESQLHLKGDPHYSFNHPFSINNLMSSSEQQHKLDFKAYEQALQYSPYGSTLPASLPLGSASVTTRSPIEPSALEPAYYQGVYSRPVLNTS |
|  |  |  | binds | binds | FOXA1, endogenous (protein, UniProt P55317 1-472) MLGTVKMEGHETSDWNSYYADTQEAYSSVPVSNMNSGLGSMNSMNTYMTMNTMTTSGNMTPASFNMSYANPGLGAGLSPGAVAGMPGGSAGAMNSMTAAGVTAMGTALSPSGMGAMGAQQAASMNGLGPYAAAMNPCMSPMAYAPSNLGRSRAGGGGDAKTFKRSYPHAKPPYSYISLITMAIQQAPSKMLTLSEIYQWIMDLFPYYRQNQQRWQNSIRHSLSFNDCFVKVARSPDKPGKGSYWTLHPDSGNMFENGCYLRRQKRFKCEKQPGAGGGGGSGSGGSGAKGGPESRKDPSGASNPSADSPLHRGVHGKTGQLEGAPAPGPAASPQTLDHSGATATGGASELKTPASSTAPPISSGPGALASVPASHPAHGLAPHESQLHLKGDPHYSFNHPFSINNLMSSSEQQHKLDFKAYEQALQYSPYGSTLPASLPLGSASVTTRSPIEPSALEPAYYQGVYSRPVLNTS |
